Reference: publication PMC4453921, “Crystal structure of caspase recruiting domain (CARD) of apoptosis repressor with CARD (ARC) and its implication in inhibition of apoptosis” (Scientific Reports, 2015)
Substitutions are numbered along the chain they refer to. Names may count otherwise. Results are given in words; binding and its absence hold for the method and conditions named. One block for each binder: values may come before it.

How the values were obtained:
[1] = molecular target: ARC CARD domain (amino acids 1-95), wild type (human) (UniProt O60936); assay: SEC-MALS; size exclusion chromatography and MALS in the presence of high salt (1.5 M NaCl); both purified
[2] = molecular target: ARC CARD domain (amino acids 1-95), wild type (human) (UniProt O60936); assay: SEC-MALS; size exclusion chromatography and MALS at low pH (pH 3); both purified
[3] = molecular target: ARC CARD (1-95) R56E (human) (UniProt O60936); assay: SEC-MALS; Superdex 200 HR 10/30 equilibrated in appropriate buffer, coupled to three-angle light scattering and refractive index detectors, 0.2 ml/min; both purified
[4] = molecular target: ARC CARD (1-95) R56E (human) (UniProt O60936); assay: native gel or EMSA; native PAGE, Phast System, 8-25% gradient gels; separately purified proteins pre-incubated at room temperature for 1 hour; Coomassie staining; both purified
[5] = molecular target: ARC CARD (1-95) R59E (human) (UniProt O60936); assay: SEC-MALS; Superdex 200 HR 10/30 equilibrated in appropriate buffer, coupled to three-angle light scattering and refractive index detectors, 0.2 ml/min; both purified
[6] = molecular target: ARC CARD (1-95) R59E (human) (UniProt O60936); assay: native gel or EMSA; native PAGE, Phast System, 8-25% gradient gels; separately purified proteins pre-incubated at room temperature for 1 hour; Coomassie staining; both purified
[7] = molecular target: ARC CARD (1-95) double mutant D49R, R59E (human) (UniProt O60936); assay: as above

B1: ARC CARD domain (amino acids 1-95), wild type (domain or fragment, human, UniProt O60936 1-95, looked up)
chain: MGNAQERPSETIDRERKRLVETLQADSGLLLDALLARGVLTGPEYEALDALPDAERRVRRLLLLVQGKGEAACQELLRCAQRTAGAPDPAWDWQH
notes: Apoptosis repressor with caspase recruiting domain (ARC), human (208 amino acids), CARD domain, amino acids 1-95; Expression and purification are said to be described in detail elsewhere; A selenomethionine-substituted form was made for SAD phasing; also called CARD domain of ARC; caspase recruiting domain of apoptosis repressor with CARD; not shown: His-tag, C-terminal, kept
binding [1]: no binding (condition: with 1.5 M NaCl) | binding [2]: no binding (condition: at pH 3)

B4: ARC CARD (1-95) double mutant D49R, R59E (domain or fragment, UniProt O60936 1-95)
chain: B1 chain with D49R, R59E
binding [7]: no binding

Further lines, results first:

binding [3]: no binding | binding [4]: no binding
B2: ARC CARD (1-95) R56E (domain or fragment, UniProt O60936 1-95)
chain: B1 chain with R56E

binding [5]: no binding | binding [6]: no binding
B3: ARC CARD (1-95) R59E (domain or fragment, UniProt O60936 1-95)
chain: B1 chain with R59E
